From publication PMC4526467 come the findings set out here.

Sequences of proteins named here, by UniProt entry; tags and fusion partners are left off. A change or cut given only in a name is not applied to a line headed by its entry.
UniProt P18089: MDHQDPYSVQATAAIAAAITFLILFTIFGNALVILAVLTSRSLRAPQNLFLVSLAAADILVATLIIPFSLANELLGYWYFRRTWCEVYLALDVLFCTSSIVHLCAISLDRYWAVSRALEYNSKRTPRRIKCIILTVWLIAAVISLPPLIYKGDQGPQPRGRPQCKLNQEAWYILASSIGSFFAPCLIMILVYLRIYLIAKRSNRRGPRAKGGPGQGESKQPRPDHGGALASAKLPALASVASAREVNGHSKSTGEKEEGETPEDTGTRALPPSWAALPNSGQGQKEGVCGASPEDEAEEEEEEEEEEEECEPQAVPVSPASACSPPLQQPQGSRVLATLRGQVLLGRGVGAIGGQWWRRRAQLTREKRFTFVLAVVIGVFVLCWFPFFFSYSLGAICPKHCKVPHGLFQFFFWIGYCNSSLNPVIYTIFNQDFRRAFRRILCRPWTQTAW
UniProt P32121: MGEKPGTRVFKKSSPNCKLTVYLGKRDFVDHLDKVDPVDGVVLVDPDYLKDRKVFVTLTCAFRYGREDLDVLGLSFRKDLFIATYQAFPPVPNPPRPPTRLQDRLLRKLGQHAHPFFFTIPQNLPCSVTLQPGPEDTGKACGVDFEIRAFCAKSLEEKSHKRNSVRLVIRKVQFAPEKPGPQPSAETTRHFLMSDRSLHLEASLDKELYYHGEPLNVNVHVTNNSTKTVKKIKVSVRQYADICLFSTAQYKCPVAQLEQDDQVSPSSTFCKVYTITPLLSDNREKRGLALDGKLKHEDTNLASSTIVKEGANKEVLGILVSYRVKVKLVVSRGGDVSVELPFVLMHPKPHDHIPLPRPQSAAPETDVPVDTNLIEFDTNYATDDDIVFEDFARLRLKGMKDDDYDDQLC

In this assay the target is HA-tagged wild type human α2BAR (pcDNA3.1-HA-α2B) (human) (UniProt P18089). Put plainly: co-IP; transfected cells co-expressing HA-tagged WT or Del301-303 α2BAR with GFP-Arr3, GFP-Arr3R170E or Myc-spinophilin, with or without 100 μM epinephrine plus 1 μM propranolol; IP with rat anti-HA antibody.

No constants are given. Whether binding was seen depends on the method and setting. Binding seen in cells or lysates may run through a third protein. Binding calls can cover weak binding; strength is not graded here.

Regarding “GFP-tagged arrestin 3 R170E (pGFP-Arr3-R170E) (from UniProt P32121)”, the binding result is “binds”.
